{
  "source": "patent US9669064B2",
  "about": "“Method for anti-oxidation, inhibiting activity and/or expression of matrix metalloproteinase, and/or promoting expression of collagen using Ixora parviflora leaf extract” (CHINA MEDICAL UNIVERSITY, priority 2010, dated 2017)",
  "key": {"[1]": {"system": "bacterial collagenase", "assay": "Inhibition test of collagenase activity (agar gel medium)", "format": "biochemical", "conditions": "100 μg/mL"}, "[2]": {"system": "bacterial collagenase", "assay": "Concentration-dependent inhibition test of collagenase activity (fluorogenic substrate)", "format": "biochemical", "conditions": "100 μg/mL"}},
  "note": "For at least one compound, name, drawing or mass did not settle the structure.",
  "data": [
    {"smiles": "C[C@H]1c2cccc(O)c2C(=O)C2=C(O)[C@]3(O)C(=O)C(C(N)=O)=C(O)[C@@H](N(C)C)[C@@H]3[C@@H](O)[C@@H]21", "note": "[doxycycline]", "values": [
      {"measurement": "Inhibition Rate (%)", "setting": "[1]", "value": "100.4±0.3", "unit": "%"},
      {"measurement": "Inhibition Rate (%)", "setting": "[2]", "value": "100 ± 0.0", "unit": "%"}
    ]}
  ]
}
